{"source": "PubChem BioAssay AID1259405 (NCATS, 2018)", "screen": "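Knock-downs that lift recombinant protein yield in hamster ovary cells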 (primary screen)", "system": "Chinese hamster CHO-K1 ovary cells with stable secreted eGFP expression", "reagents": "single siRNA against mouse genes, 0.8 pmol siRNA per well (2 µl of 400 nM stock)", "timing": "3 days", "detection": "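Percent of the per-plate non-targeting control median for intracellular GFP per well by laser scanning cytometry and for cell viability by ATP luminescence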", "reading the numbers": "GFP, % of control: higher = more GFP per well, higher productivity; viability (ATP), % of control: higher = more viable cells (more ATP)", "call rule": "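Called active when intracellular GFP, relative to negative control, is at or above 120%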", "note": "In all, the deposit lists about 50,000 reagents; shown is a random part of them. About 4,000 of all reagents (8%) count as active. 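Mouse siRNA library applied to hamster cells; one well for each siRNA.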 The numbers tell different reagents against one gene apart."}
{"gene knocked down": "Rxrb", "reagent": 1, "GFP, % of control": 12.2, "viability (ATP), % of control": 77.6, "Call": "inactive"}
{"gene knocked down": "Rxrb", "reagent": 2, "GFP, % of control": 72.2, "viability (ATP), % of control": 70.2, "Call": "inactive"}
{"gene knocked down": "Rxrb", "reagent": 3, "GFP, % of control": 77.5, "viability (ATP), % of control": 77.6, "Call": "inactive"}
{"gene knocked down": "Cnot7", "reagent": 1, "GFP, % of control": 73.4, "viability (ATP), % of control": 61, "Call": "inactive"}
{"gene knocked down": "Cnot7", "reagent": 2, "GFP, % of control": 93.1, "viability (ATP), % of control": 77, "Call": "inactive"}
{"gene knocked down": "Ntsr1", "reagent": 1, "GFP, % of control": 91.9, "viability (ATP), % of control": 71.6, "Call": "inactive"}
{"gene knocked down": "Ntsr1", "reagent": 2, "GFP, % of control": 86.3, "viability (ATP), % of control": 70.2, "Call": "inactive"}
{"gene knocked down": "Ntsr1", "reagent": 3, "GFP, % of control": 126, "viability (ATP), % of control": 89.1, "Call": "active"}
{"gene knocked down": "Slit3", "reagent": 1, "GFP, % of control": 81.8, "viability (ATP), % of control": 97.3, "Call": "inactive"}
{"gene knocked down": "Slit3", "reagent": 2, "GFP, % of control": 69.7, "viability (ATP), % of control": 52.1, "Call": "inactive"}
{"gene knocked down": "Slit3", "reagent": 3, "GFP, % of control": 109, "viability (ATP), % of control": 90.5, "Call": "inactive"}
{"gene knocked down": "Abca15", "reagent": 1, "GFP, % of control": 81.7, "viability (ATP), % of control": 93.3, "Call": "inactive"}
{"gene knocked down": "Abca15", "reagent": 2, "GFP, % of control": 71.1, "viability (ATP), % of control": 75.9, "Call": "inactive"}
{"gene knocked down": "Abca15", "reagent": 3, "GFP, % of control": 88.8, "viability (ATP), % of control": 61, "Call": "inactive"}
{"gene knocked down": "Traf4", "reagent": 1, "GFP, % of control": 55.7, "viability (ATP), % of control": 74.1, "Call": "inactive"}
{"gene knocked down": "Traf4", "reagent": 2, "GFP, % of control": 69.2, "viability (ATP), % of control": 50.7, "Call": "inactive"}
{"gene knocked down": "Traf4", "reagent": 3, "GFP, % of control": 66.2, "viability (ATP), % of control": 71.8, "Call": "inactive"}
{"gene knocked down": "Cacng5", "reagent": 1, "GFP, % of control": 136, "viability (ATP), % of control": 76.5, "Call": "active"}
{"gene knocked down": "Cacng5", "reagent": 2, "GFP, % of control": 23.3, "viability (ATP), % of control": 30.7, "Call": "inactive"}
{"gene knocked down": "Cacng5", "reagent": 3, "GFP, % of control": 71.9, "viability (ATP), % of control": 85.4, "Call": "inactive"}
{"gene knocked down": "Or2t47", "reagent": 1, "GFP, % of control": 78.7, "viability (ATP), % of control": 52.6, "Call": "inactive"}
{"gene knocked down": "Or2t47", "reagent": 2, "GFP, % of control": 94.3, "viability (ATP), % of control": 44.7, "Call": "inactive"}
{"gene knocked down": "Or2t47", "reagent": 3, "GFP, % of control": 22.2, "viability (ATP), % of control": 79.4, "Call": "inactive"}
{"gene knocked down": "Rtl3", "reagent": 1, "GFP, % of control": 130, "viability (ATP), % of control": 96.5, "Call": "active"}
{"gene knocked down": "Rtl3", "reagent": 2, "GFP, % of control": 50, "viability (ATP), % of control": 44.3, "Call": "inactive"}
{"gene knocked down": "Rtl3", "reagent": 3, "GFP, % of control": 86.5, "viability (ATP), % of control": 83.5, "Call": "inactive"}
{"gene knocked down": "Gtf3c3", "reagent": 1, "GFP, % of control": 60.3, "viability (ATP), % of control": 75.7, "Call": "inactive"}
{"gene knocked down": "Gtf3c3", "reagent": 2, "GFP, % of control": 121, "viability (ATP), % of control": 81.7, "Call": "active"}
{"gene knocked down": "Clock", "reagent": 1, "GFP, % of control": 75.1, "viability (ATP), % of control": 74.1, "Call": "inactive"}
{"gene knocked down": "Clock", "reagent": 2, "GFP, % of control": 48.2, "viability (ATP), % of control": 61.4, "Call": "inactive"}
{"gene knocked down": "Clock", "reagent": 3, "GFP, % of control": 100, "viability (ATP), % of control": 108, "Call": "inactive"}
{"gene knocked down": "Krtap1-5", "reagent": 1, "GFP, % of control": 57.5, "viability (ATP), % of control": 65.5, "Call": "inactive"}
{"gene knocked down": "Krtap1-5", "reagent": 2, "GFP, % of control": 81.7, "viability (ATP), % of control": 85.9, "Call": "inactive"}
{"gene knocked down": "Krtap1-5", "reagent": 3, "GFP, % of control": 52.9, "viability (ATP), % of control": 44.7, "Call": "inactive"}
{"gene knocked down": "Rbpms", "reagent": 1, "GFP, % of control": 51.8, "viability (ATP), % of control": 41, "Call": "inactive"}
{"gene knocked down": "Rbpms", "reagent": 2, "GFP, % of control": 103, "viability (ATP), % of control": 125, "Call": "inactive"}
{"gene knocked down": "Rbpms", "reagent": 3, "GFP, % of control": 71.7, "viability (ATP), % of control": 44.5, "Call": "inactive"}
{"gene knocked down": "Efcab12", "reagent": 1, "GFP, % of control": 124, "viability (ATP), % of control": 83.3, "Call": "active"}
{"gene knocked down": "Efcab12", "reagent": 2, "GFP, % of control": 82.6, "viability (ATP), % of control": 86.4, "Call": "inactive"}
{"gene knocked down": "Efcab12", "reagent": 3, "GFP, % of control": 99.6, "viability (ATP), % of control": 112, "Call": "inactive"}

Called active (from the list above):
{"gene knocked down": "Ntsr1", "reagent": 3, "GFP, % of control": 126, "viability (ATP), % of control": 89.1, "Call": "active"}
{"gene knocked down": "Cacng5", "reagent": 1, "GFP, % of control": 136, "viability (ATP), % of control": 76.5, "Call": "active"}
{"gene knocked down": "Rtl3", "reagent": 1, "GFP, % of control": 130, "viability (ATP), % of control": 96.5, "Call": "active"}
{"gene knocked down": "Gtf3c3", "reagent": 2, "GFP, % of control": 121, "viability (ATP), % of control": 81.7, "Call": "active"}
{"gene knocked down": "Efcab12", "reagent": 1, "GFP, % of control": 124, "viability (ATP), % of control": 83.3, "Call": "active"}
